Data as given in PubChem BioAssay AID504808 (Drosophila RNAi Screening Center, 2011).
Assay: 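Genes whose loss lifts activity of an E2F-responsive reporter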 (primary screen). Cells: Drosophila S2 cells. Reagent: long dsRNA against Drosophila genes. Detection: 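Firefly luciferase driven by E2F sites, normalised to Renilla luciferase on the same minimal promoter, measured by plate reader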. Reading the numbers: E2F firefly: higher = more E2F reporter activity; Renilla normaliser: higher = more normaliser reporter signal. Call rule: 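Called active if the normalised E2F reporter went up by over 50%; the cutoff is arbitrary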.
In all, the deposit lists about 21,000 reagents; below is a random part of those with a known target gene and a result. Over the whole deposit, 18 (0.084%) are marked active. 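Raw counts without plate normalisation, one of two replicates; the ratio scores behind the calls were not deposited.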 A number with no mark means an inactive call. The numbers tell different reagents against one gene apart. Names joined by + are all predicted targets of the reagent. Not given: the amount of reagent, the time to read-out.

{"gene": "CG11380", "reagent no.": 1, "E2F firefly, rep 1": 70673, "Renilla normaliser, rep 1": 3993}
{"gene": "CG5618", "reagent no.": 1, "E2F firefly, rep 1": 76747, "Renilla normaliser, rep 1": 3263}
{"gene": "CG15822", "reagent no.": 1, "E2F firefly, rep 1": 1.08e5, "Renilla normaliser, rep 1": 3990}
{"gene": "CG15822", "reagent no.": 2, "E2F firefly, rep 1": 89311, "Renilla normaliser, rep 1": 4572}
{"gene": "CG12419 (retired record)", "reagent no.": 1, "E2F firefly, rep 1": 1.23e5, "Renilla normaliser, rep 1": 5391}
{"gene": "CG6937 + btn", "reagent no.": 1, "E2F firefly, rep 1": 96349, "Renilla normaliser, rep 1": 5575}
{"gene": "Ir62a", "reagent no.": 1, "E2F firefly, rep 1": 87440, "Renilla normaliser, rep 1": 4149}
{"gene": "hob", "reagent no.": 1, "E2F firefly, rep 1": 78940, "Renilla normaliser, rep 1": 3294}

Continued, starting with the last 2 of the part before.
{"gene": "Ir62a", "reagent no.": 1, "E2F firefly, rep 1": 87440, "Renilla normaliser, rep 1": 4149}
{"gene": "hob", "reagent no.": 1, "E2F firefly, rep 1": 78940, "Renilla normaliser, rep 1": 3294}
{"gene": "CG7714", "reagent no.": 1, "E2F firefly, rep 1": 1.50e5, "Renilla normaliser, rep 1": 8066}
{"gene": "Br140", "reagent no.": 1, "E2F firefly, rep 1": 92136, "Renilla normaliser, rep 1": 3489}
{"gene": "Imp", "reagent no.": 1, "E2F firefly, rep 1": 85426, "Renilla normaliser, rep 1": 2814}
{"gene": "Imp", "reagent no.": 2, "E2F firefly, rep 1": 7055, "Renilla normaliser, rep 1": 828}
